Results as given in patent publication EP4647494A1, “POLYPEPTIDE AND USE THEREOF” (priority 2023, dated 2024).
At least one peptide structure holds a part that was inferred or is arguable (an end, a ring closure or a residue). Positions of bridges follow the written chain, without caps; N, C: chain ends. Residues, ends and D or L forms follow the SMILES beside them.

tested on: HEK293/TLR4/NF-kB-Luc cells; assay: Inhibition of luciferase reporter gene expression in TLR4 cells activated by LPS; assay type: cell-based; details: based on IC50 versus TCP-25; polypeptide premixed with LPS, incubated 6 hours at 37°C

SMILES | Activity multiple relative to TCP-25
CC[C@H](C)[C@H](NC(=O)[C@H](Cc1c[nH]c2ccccc12)NC(=O)[C@H](CCCCN)NC(=O)[C@H](CCCCN)NC(=O)[C@H](CC(C)C)NC(=O)[C@H](CCCNC(=N)N)NC(=O)[C@H](Cc1ccccc1)NC(=O)[C@@H](NC(=O)[C@H](CCCCN)NC(=O)[C@@H](NC(=O)[C@H](Cc1ccc(O)cc1)NC(=O)[C@H](Cc1ccccc1)NC(=O)CNC(=O)[C@H](Cc1c[nH]c2ccccc12)NC(=O)[C@H](CCCCN)NC(=O)CN)[C@@H](C)O)C(C)C)C(=O)N[C@@H](CO)C(=O)N[C@@H](CCCCN)C(=O)N[C@H](C(=O)N[C@H](C(=O)N[C@H]1CSSC[C@@H](C(N)=O)NC(=O)CNC(=O)[C@H](Cc2ccccc2)NC(=O)[C@H]([C@@H](C)O)NC1=O)[C@@H](C)CC)C(C)C [Compound 109] (H-GKWGFYTKVFRLKKWISKVICTFGC-NH2; disulfide 21-25) | 11.54
CC[C@H](C)[C@H](NC(=O)[C@H](Cc1c[nH]c2ccccc12)NC(=O)[C@H](CCCCN)NC(=O)[C@H](CCCCN)NC(=O)[C@H](CC(C)C)NC(=O)[C@H](CCCNC(=N)N)NC(=O)[C@H](Cc1ccccc1)NC(=O)[C@@H](NC(=O)[C@H](CCCCN)NC(=O)[C@@H](NC(=O)[C@H](Cc1ccc(O)cc1)NC(=O)[C@H](Cc1ccccc1)NC(=O)CNC(=O)[C@H](Cc1c[nH]c2ccccc12)NC(=O)[C@H](CCCCN)NC(=O)CN)[C@@H](C)O)C(C)C)C(=O)N[C@@H](CC(N)=O)C(=O)N[C@@H](CCCCN)C(=O)N[C@H](C(=O)N[C@H](C(=O)N[C@H]1CSSC[C@@H](C(N)=O)NC(=O)CNC(=O)[C@H](Cc2ccccc2)NC(=O)[C@H]([C@@H](C)O)NC1=O)[C@@H](C)CC)C(C)C [Compound 108] (H-GKWGFYTKVFRLKKWINKVICTFGC-NH2; disulfide 21-25) | 3.64
CC[C@H](C)[C@H](NC(=O)[C@H](Cc1c[nH]c2ccccc12)NC(=O)[C@H](CCCCN)NC(=O)[C@H](CCCCN)NC(=O)[C@H](CC(C)C)NC(=O)[C@H](CCCNC(=N)N)NC(=O)[C@H](Cc1ccccc1)NC(=O)[C@@H](NC(=O)[C@H](CCCCN)NC(=O)[C@@H](NC(=O)[C@H](Cc1ccc(O)cc1)NC(=O)[C@H](Cc1ccccc1)NC(=O)CNC(=O)[C@H](Cc1c[nH]c2ccccc12)NC(=O)[C@H](CCCCN)NC(=O)CN)[C@@H](C)O)C(C)C)C(=O)N[C@@H](CCCNC(=N)N)C(=O)N[C@@H](CCCCN)C(=O)N[C@H](C(=O)N[C@H](C(=O)N[C@H]1CSSC[C@@H](C(N)=O)NC(=O)CNC(=O)[C@H](Cc2ccccc2)NC(=O)[C@H]([C@@H](C)O)NC1=O)[C@@H](C)CC)C(C)C [Compound 106] (H-GKWGFYTKVFRLKKWIRKVICTFGC-NH2; disulfide 21-25) | 10.48
CC[C@H](C)[C@H](NC(=O)[C@H](Cc1c[nH]c2ccccc12)NC(=O)[C@H](CCCCN)NC(=O)[C@H](CCCCN)NC(=O)[C@H](CC(C)C)NC(=O)[C@H](CCCNC(=N)N)NC(=O)[C@H](Cc1ccccc1)NC(=O)[C@@H](NC(=O)[C@H](CCCCN)NC(=O)[C@@H](NC(=O)[C@H](Cc1ccc(O)cc1)NC(=O)[C@H](Cc1ccccc1)NC(=O)CNC(=O)[C@H](Cc1c[nH]c2ccccc12)NC(=O)[C@H](CCCCN)NC(=O)CN)[C@@H](C)O)C(C)C)C(=O)N[C@@H](CCCCN)C(=O)N[C@@H](CCCCN)C(=O)N[C@H](C(=O)N[C@H](C(=O)N[C@H]1CSSC[C@@H](C(N)=O)NC(=O)CNC(=O)[C@H](Cc2ccccc2)NC(=O)[C@H]([C@@H](C)O)NC1=O)[C@@H](C)CC)C(C)C [Compound 105] (H-GKWGFYTKVFRLKKWIKKVICTFGC-NH2; disulfide 21-25) | 25.22
